Here are results for 38 targets from the supplement of paper PMC6411743.

Chains of the proteins cited; added tags and fusions are not shown. Lines headed by an entry give the natural chain unless they say otherwise; changes in a name come on top.
UniProt P49593: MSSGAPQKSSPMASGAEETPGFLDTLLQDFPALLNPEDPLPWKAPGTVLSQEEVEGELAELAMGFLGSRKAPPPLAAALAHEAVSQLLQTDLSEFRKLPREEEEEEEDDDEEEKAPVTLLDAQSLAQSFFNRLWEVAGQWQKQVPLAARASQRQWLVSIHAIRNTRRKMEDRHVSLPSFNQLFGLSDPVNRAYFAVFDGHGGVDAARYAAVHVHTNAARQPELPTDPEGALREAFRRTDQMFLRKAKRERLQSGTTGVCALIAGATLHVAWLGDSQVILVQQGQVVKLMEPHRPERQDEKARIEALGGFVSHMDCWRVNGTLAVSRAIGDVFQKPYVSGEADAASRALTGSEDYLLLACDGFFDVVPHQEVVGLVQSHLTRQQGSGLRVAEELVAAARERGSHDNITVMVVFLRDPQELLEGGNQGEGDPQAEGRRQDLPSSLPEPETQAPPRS
UniProt P53367: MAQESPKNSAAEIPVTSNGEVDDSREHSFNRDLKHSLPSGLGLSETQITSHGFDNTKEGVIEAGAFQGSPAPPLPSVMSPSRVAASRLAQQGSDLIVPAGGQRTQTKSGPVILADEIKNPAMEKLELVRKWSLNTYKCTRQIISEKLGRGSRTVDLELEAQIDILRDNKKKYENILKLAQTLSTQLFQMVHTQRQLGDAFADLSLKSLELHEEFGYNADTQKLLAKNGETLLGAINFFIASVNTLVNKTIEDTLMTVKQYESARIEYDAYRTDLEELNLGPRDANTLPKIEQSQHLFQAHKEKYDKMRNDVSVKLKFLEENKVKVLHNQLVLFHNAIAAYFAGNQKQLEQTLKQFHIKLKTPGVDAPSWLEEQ
UniProt P50579: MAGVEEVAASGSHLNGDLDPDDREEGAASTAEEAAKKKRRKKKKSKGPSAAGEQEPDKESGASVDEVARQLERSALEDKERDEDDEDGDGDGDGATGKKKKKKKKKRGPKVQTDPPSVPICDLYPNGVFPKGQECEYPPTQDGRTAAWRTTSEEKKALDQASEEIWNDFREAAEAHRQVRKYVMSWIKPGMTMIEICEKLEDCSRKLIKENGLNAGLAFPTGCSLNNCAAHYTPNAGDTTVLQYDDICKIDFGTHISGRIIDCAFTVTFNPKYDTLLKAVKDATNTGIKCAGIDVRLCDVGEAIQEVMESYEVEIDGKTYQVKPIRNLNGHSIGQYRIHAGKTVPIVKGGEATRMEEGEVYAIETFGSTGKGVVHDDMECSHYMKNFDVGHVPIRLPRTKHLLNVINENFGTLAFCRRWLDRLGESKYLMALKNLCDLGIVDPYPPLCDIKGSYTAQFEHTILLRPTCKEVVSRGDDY
UniProt P54277: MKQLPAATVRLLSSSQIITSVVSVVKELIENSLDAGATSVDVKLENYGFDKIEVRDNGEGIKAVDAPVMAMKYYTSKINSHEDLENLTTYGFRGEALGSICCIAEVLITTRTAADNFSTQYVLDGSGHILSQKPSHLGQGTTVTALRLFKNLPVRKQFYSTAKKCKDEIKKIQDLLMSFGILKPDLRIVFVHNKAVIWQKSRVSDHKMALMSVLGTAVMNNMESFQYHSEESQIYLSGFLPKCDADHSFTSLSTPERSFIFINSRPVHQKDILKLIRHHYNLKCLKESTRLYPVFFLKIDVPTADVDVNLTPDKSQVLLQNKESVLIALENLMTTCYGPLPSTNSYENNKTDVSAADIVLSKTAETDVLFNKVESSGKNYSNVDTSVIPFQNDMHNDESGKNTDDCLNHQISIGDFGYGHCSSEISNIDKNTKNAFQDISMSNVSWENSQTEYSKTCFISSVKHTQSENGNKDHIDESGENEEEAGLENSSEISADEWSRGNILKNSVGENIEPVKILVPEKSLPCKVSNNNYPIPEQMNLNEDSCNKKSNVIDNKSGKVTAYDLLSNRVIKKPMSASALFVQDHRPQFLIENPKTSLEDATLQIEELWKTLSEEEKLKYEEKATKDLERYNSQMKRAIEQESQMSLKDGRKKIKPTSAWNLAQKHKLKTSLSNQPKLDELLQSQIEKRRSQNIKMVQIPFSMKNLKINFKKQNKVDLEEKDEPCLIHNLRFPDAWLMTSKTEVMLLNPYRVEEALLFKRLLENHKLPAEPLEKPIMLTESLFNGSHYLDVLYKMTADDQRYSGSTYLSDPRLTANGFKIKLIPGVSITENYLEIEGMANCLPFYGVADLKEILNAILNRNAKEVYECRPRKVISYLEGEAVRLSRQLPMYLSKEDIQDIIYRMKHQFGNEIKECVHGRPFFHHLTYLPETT
UniProt P53004: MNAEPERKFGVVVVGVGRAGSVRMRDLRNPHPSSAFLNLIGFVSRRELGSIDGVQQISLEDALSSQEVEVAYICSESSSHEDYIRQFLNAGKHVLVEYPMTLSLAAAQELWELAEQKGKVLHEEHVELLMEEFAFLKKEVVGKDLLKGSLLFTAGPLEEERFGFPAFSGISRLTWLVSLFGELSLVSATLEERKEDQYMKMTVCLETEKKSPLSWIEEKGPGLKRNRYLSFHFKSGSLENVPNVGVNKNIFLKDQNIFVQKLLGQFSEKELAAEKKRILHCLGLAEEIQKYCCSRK
UniProt P46013: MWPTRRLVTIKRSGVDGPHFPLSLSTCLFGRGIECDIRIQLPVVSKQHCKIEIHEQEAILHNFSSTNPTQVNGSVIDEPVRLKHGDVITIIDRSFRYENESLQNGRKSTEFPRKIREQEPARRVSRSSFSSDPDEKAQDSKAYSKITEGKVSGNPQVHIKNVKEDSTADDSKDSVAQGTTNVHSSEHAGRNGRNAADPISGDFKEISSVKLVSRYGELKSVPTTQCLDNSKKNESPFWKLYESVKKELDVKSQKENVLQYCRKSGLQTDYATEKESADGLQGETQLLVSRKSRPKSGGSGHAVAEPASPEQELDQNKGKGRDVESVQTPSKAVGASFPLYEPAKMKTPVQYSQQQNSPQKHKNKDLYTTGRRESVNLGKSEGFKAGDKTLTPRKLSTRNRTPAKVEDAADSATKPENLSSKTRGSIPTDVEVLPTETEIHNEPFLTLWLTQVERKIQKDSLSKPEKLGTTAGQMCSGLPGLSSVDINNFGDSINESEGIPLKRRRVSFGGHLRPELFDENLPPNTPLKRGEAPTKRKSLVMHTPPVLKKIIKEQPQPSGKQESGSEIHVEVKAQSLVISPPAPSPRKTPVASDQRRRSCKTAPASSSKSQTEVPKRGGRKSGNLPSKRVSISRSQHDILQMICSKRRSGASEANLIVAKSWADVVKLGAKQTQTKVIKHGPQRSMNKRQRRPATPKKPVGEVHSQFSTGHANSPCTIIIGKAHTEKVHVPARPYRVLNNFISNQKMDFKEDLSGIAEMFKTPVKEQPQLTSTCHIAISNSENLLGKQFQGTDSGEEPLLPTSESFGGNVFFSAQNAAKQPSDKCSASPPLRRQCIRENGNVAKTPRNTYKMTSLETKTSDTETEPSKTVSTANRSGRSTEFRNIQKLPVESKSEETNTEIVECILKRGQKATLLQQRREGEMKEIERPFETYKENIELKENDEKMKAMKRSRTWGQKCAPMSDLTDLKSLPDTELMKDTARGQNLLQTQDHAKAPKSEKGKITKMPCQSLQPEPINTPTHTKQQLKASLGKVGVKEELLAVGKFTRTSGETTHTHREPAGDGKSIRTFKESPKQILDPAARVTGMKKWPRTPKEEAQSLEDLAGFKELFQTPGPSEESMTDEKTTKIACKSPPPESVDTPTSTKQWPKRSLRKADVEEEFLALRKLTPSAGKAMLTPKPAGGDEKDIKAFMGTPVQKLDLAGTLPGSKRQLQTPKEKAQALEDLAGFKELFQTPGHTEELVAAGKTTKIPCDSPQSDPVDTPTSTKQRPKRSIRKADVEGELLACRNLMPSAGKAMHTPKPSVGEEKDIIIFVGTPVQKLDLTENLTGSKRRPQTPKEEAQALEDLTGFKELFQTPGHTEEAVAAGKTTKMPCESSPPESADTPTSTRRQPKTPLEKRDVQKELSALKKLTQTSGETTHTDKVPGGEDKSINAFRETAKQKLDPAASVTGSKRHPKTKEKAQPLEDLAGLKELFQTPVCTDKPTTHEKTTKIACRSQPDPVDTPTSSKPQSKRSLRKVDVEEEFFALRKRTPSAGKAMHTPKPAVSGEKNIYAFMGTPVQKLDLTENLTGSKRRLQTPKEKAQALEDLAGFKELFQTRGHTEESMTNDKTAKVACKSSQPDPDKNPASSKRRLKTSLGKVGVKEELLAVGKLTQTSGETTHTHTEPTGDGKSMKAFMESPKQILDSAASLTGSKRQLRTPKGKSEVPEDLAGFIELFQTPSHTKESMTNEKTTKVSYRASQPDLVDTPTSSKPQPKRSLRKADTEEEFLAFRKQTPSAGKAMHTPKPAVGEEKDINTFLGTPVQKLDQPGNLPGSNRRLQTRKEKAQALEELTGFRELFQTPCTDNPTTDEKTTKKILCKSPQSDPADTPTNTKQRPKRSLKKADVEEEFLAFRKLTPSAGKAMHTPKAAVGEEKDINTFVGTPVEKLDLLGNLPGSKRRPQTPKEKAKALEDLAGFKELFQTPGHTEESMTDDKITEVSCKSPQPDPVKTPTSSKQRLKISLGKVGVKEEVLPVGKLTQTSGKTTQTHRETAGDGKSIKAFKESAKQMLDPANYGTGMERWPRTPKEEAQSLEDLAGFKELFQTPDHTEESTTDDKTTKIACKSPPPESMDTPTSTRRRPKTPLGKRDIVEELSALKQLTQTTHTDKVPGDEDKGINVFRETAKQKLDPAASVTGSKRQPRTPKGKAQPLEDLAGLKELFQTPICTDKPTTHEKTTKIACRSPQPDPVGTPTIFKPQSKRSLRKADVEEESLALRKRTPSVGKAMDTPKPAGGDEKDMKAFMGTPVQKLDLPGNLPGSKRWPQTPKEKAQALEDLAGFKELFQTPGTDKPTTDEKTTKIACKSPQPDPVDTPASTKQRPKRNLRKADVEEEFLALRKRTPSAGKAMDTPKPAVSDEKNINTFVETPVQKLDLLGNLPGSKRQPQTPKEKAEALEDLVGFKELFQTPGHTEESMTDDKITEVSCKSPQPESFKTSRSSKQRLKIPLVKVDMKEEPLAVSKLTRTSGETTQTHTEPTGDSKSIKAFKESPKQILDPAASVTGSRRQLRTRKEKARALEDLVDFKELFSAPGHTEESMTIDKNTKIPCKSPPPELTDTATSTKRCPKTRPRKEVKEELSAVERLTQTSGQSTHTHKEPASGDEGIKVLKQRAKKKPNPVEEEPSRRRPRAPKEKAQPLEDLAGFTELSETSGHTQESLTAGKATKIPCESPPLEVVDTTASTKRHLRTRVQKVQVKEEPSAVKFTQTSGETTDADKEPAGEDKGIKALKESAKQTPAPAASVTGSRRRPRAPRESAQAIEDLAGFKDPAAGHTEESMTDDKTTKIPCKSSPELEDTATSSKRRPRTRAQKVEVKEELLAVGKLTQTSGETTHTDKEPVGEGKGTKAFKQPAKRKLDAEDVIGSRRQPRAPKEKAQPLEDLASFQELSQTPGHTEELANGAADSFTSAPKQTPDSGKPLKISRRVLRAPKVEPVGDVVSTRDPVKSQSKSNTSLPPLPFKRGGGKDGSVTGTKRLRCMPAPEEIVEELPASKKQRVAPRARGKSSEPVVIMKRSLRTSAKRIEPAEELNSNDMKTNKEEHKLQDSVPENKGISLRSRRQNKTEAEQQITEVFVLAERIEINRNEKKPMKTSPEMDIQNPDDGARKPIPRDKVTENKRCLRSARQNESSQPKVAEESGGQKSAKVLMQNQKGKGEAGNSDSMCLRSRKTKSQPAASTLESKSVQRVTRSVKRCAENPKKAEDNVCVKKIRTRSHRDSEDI
UniProt P41250: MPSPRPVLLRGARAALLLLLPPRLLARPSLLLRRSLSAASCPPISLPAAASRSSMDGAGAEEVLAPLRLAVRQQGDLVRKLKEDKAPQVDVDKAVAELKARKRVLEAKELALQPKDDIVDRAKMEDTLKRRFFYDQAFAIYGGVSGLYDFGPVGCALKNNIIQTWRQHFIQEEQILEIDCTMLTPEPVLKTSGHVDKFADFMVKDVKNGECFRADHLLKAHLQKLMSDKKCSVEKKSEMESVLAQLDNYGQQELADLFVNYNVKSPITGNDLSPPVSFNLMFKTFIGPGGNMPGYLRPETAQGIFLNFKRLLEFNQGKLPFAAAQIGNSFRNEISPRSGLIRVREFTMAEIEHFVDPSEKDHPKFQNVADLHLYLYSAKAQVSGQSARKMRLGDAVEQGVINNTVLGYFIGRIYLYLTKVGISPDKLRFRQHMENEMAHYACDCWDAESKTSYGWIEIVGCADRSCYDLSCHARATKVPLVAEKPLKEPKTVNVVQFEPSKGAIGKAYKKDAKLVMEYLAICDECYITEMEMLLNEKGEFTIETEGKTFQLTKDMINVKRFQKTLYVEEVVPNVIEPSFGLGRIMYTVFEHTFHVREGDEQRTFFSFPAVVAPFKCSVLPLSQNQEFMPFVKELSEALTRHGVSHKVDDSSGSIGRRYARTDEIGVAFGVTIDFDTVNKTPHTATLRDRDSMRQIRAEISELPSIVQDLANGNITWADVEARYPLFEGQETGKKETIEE

± gives the standard deviation of the averaged measurements. Only a part is listed here, and it is no random draw. Most values lie at the level of the controls, where differences are scatter.

Compound in the first test: Nc1ncnc2c1ncn2[C@@H]1O[C@H](COP(=O)(O)OP(=O)(O)NP(=O)(O)O)[C@@H](O)[C@H]1O [adenylyl imidodiphosphate]
Kind of test: NP40-soluble protein abundance relative to vehicle (solubility fold change) (ratio); higher = more soluble protein in presence of AMP-PNP. Conditions: concentration: 0.1mM. Summed up:
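Values are fold changes against the detergent-processed vehicle, based on vsn-normalised intensities. Jurkat crude lysate was treated at eight concentrations from 0.1 to 10 mM (10 min at room temperature, then 3 min at 37 °C), solubilised with 0.8% NP40 and benzonase, ultracentrifuged and analysed by TMT-labelled LC-MS/MS over three independent experiments.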
As to CPT1A (UniProt P50416), the NP40-soluble protein abundance is 0.967 ± 0.03.
On the same count and under the same terms, the same measure for UniProt P52757 and related entries: 1 ± 0.019; for PPM1F (UniProt P49593): 1.05 ± 0.016; for PPT1 (UniProt P50897): 0.987 ± 0.036.
Still for that read-out and setting: the same measure for UniProt P53384 and related entries: 0.988 ± 0.032; for SMARCA2 (UniProt P51531): 0.999 ± 0.014; for GNPDA1 (UniProt P46926): 1.02 ± 0.038.
In the case of UniProt P54136 and related entries, the NP40-soluble protein abundance is 1.05 ± 0.021.
Same read-out and setting: to UniProt P53367 and related entries belongs 1.01 ± 0.049.
Still for that read-out and setting: to UniProt P51148 and related entries belongs 0.989 ± 0.04; to UniProt P51572 and related entries, 0.972 ± 0.018; to PRKX (UniProt P51817), 0.953 ± 0.074.
The same measure, in the same setting: to CCT6A (UniProt P40227) belongs 0.859 ± 0.27.
For PTDSS1 (UniProt P48651), the NP40-soluble protein abundance is 1.01 ± 0.041.
Still for that read-out and setting: to STT3A (UniProt P46977) belongs 1.018 ± 0.0057; to UniProt P51948 and related entries, 0.991 ± 0.018.
Same read-out and setting: the same measure for UniProt P49916 and related entries: 1.01 ± 0.024; for RFX3 (UniProt P48380): 0.99 ± 0.014.
Same read-out and setting: to UniProt P49796 and related entries belongs 0.9877 ± 0.0052; to UniProt P50579 and related entries, 1 ± 0.015.
For FNTB (UniProt P49356), the NP40-soluble protein abundance stood at 1.02 ± 0.028.
On the same count and under the same terms, the same measure for HDGF (UniProt P51858): 0.9302 ± 0.0077.
On the same count and under the same terms, to UniProt P54277 and related entries belongs 1.03 ± 0.067.
The same measure, in the same setting: to UniProt P50851 and related entries belongs 0.992 ± 0.011; to EMD (UniProt P50402), 0.961 ± 0.045.
In the case of KNTC1 (UniProt P50748), the NP40-soluble protein abundance worked out at 1 ± 0.04.
Regarding NOTCH1 (UniProt P46531), the NP40-soluble protein abundance stood at 1.01 ± 0.023.
On to UniProt P53004 and related entries, for which the NP40-soluble protein abundance was 1.01 ± 0.048.
On the same count and under the same terms, the same measure for COPB1 (UniProt P53618): 0.999 ± 0.04; for USP14 (UniProt P54578): 1.02 ± 0.015.
With UniProt P46013 and related entries, the NP40-soluble protein abundance turned out to be 0.981 ± 0.011.
Still for that read-out and setting: to PRCP (UniProt P42785) belongs 0.988 ± 0.038; to STAT5B (UniProt P51692), 0.999 ± 0.016; to UniProt P52594 and related entries, 0.998 ± 0.025.
Same read-out and setting: the same measure for CRKL (UniProt P46109): 0.993 ± 0.011; for CASP3 (UniProt P42574): 1.03 ± 0.038.
Consider DRG2 (UniProt P55039), for which the NP40-soluble protein abundance came to 1.04 ± 0.049.
Same read-out and setting: the same measure for UniProt P41250: 0.973 ± 0.025.

The test is the same for the next values; noted with them: concentration: 0.5mM.
Consider CPT1A (UniProt P50416), for which the NP40-soluble protein abundance amounted to 0.96 ± 0.081.
With UniProt P52757 and related entries, the NP40-soluble protein abundance came to 1.05 ± 0.0063.
On the same count and under the same terms, the same measure for PPM1F (UniProt P49593): 1.01 ± 0.022; for PPT1 (UniProt P50897): 1.01 ± 0.086.
On the same count and under the same terms, to UniProt P53384 and related entries belongs 1.02 ± 0.031.
For the target SMARCA2 (UniProt P51531), the NP40-soluble protein abundance came to 0.999 ± 0.032.
Same read-out and setting: the same measure for GNPDA1 (UniProt P46926): 1.03 ± 0.061; for UniProt P54136 and related entries: 1.01 ± 0.068.
Same read-out and setting: the same measure for UniProt P53367 and related entries: 1.03 ± 0.032; for UniProt P51148 and related entries: 0.987 ± 0.058.
Still for that read-out and setting: to UniProt P51572 and related entries belongs 1.01 ± 0.045; to PRKX (UniProt P51817), 0.9658 ± 0.0083.
In the case of CCT6A (UniProt P40227), the NP40-soluble protein abundance was found to be 1.11 ± 0.22.
For PTDSS1 (UniProt P48651), the NP40-soluble protein abundance was 1.01 ± 0.048.
On to STT3A (UniProt P46977), for which the NP40-soluble protein abundance was 1.02 ± 0.052.
On the same count and under the same terms, the same measure for UniProt P51948 and related entries: 1.03 ± 0.04.
Same read-out and setting: the same measure for UniProt P49916 and related entries: 0.996 ± 0.022.
Still for that read-out and setting: the same measure for RFX3 (UniProt P48380): 0.9885 ± 0.005; for UniProt P49796 and related entries: 0.989 ± 0.013; for UniProt P50579 and related entries: 1.02 ± 0.038.
Turning to FNTB (UniProt P49356), the NP40-soluble protein abundance was determined as 1.032 ± 0.0059.
The same measure, in the same setting: to HDGF (UniProt P51858) belongs 1.02 ± 0.065.
On the same count and under the same terms, to UniProt P54277 and related entries belongs 1.03 ± 0.024; to UniProt P50851 and related entries, 0.973 ± 0.043; to EMD (UniProt P50402), 0.954 ± 0.047.
The same measure, in the same setting: the same measure for KNTC1 (UniProt P50748): 0.97 ± 0.08; for NOTCH1 (UniProt P46531): 0.983 ± 0.034; for UniProt P53004 and related entries: 0.987 ± 0.076.
Turning to COPB1 (UniProt P53618), the NP40-soluble protein abundance was 0.968 ± 0.066.
Still for that read-out and setting: the same measure for USP14 (UniProt P54578): 1.01 ± 0.028; for UniProt P46013 and related entries: 1.03 ± 0.036; for PRCP (UniProt P42785): 1 ± 0.04.
Same read-out and setting: to STAT5B (UniProt P51692) belongs 0.997 ± 0.021; to UniProt P52594 and related entries, 1.01 ± 0.024; to CRKL (UniProt P46109), 1 ± 0.043.
The same measure, in the same setting: the same measure for CASP3 (UniProt P42574): 0.999 ± 0.039; for DRG2 (UniProt P55039): 0.999 ± 0.082; for UniProt P41250: 1.002 ± 0.0081.
